No constants are given. Whether binding was seen depends on the method and setting. In cells and extracts the contact can be indirect. These calls come from enrichment with a bait or labelling near it, and not all partners need be listed. Where a sequence is shown, tags or fusion partners need not be part of it.
Biological target: T1, TRESK-loop-His8 (amino acids 185-292 of mouse TRESK) (mouse) (UniProt Q6VV64)
T1 sequence: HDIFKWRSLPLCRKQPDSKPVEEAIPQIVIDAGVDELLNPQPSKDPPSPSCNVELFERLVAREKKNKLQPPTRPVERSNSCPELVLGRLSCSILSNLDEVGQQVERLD
Assay: affinity purification with mass spectrometry; TRESK-loop-His8 (plain or PKA-phosphorylated) on a 1 ml Ni-NTA column; mouse brain cytosol first passed over a control Ni-NTA column; 50 mM to 2 M NaCl gradient, then elution with 7 M urea; SDS-PAGE, Coomassie, bands identified by mass spectrometry; only the target purified

binding: binds
Substance: tubulin (mouse brain cytosol) (complex)

— article PMC4022642
